According to PubChem BioAssay AID504834 (National Center for Advancing Translational Sciences (NCATS), 2011):
Hit rate of the full screen: of about 320,000 compounds, about 22,000 (6.9%) were called active. Inconclusive means that the source gave no clear call. Such entries were picked first, then a sample of the others. The call rests on the fitted dose curve; in most records, active means well fitted inhibition curve with a large enough effect; inconclusive means small, poorly fitted or top-dose-only effect, or another doubt; inactive means no such curve, though single readings can be large or run the other way. Potencies of inconclusive entries are doubtful fits and often do not repeat.

Experiment: Primary qHTS for delayed death inhibitors of the malarial parasite plastid, 96 hour incubation
Conditions: P. falciparum luciferase reporter growth; series mostly up to 28.7 µM
Summary of the method: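 96 h incubation, 37 C, 5% CO2, of luciferase-reporter P. falciparum-infected RBCs (2% hematocrit, 0.05% parasitemia final) with test compounds; endpoint luminescence.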
Potency means the concentration at half of the fitted maximal effect.

| Structure (SMILES) | Potency |
| --- | --- |
| Cc1c(-c2nnc(-c3ccc(C(F)(F)F)cc3)o2)cnn1-c1ccccc1 | inactive |
| Cc1onc2c(=O)n(-c3ccccc3)nc(-c3ccccc3)c12 | inconclusive: 2.33 µM [inhibitor, partial curve, poor fit] |
| C/C(=N\O)c1ccc(N2C(=O)C3CC=C(Cl)CC3C2=O)cc1 (configuration not stated) | active: 5.22 µM |
| CCN(CC)CC#CCC(O)(c1ccccc1)c1ccccc1 | inactive |
| O=[N+]([O-])c1cc(/C=N/N2CCN(Cc3ccccc3)CC2)ccc1Cl | inconclusive: 4.15 µM [inhibitor, partial curve, poor fit] |
| COc1cccc(OC)c1C(=O)NC(=S)Nc1cc(-c2nc3ccccc3[nH]2)ccc1Cl | inconclusive: 18.5 µM [inhibitor, partial curve, poor fit] |
| Cc1nn(Cc2ccc(C(=O)Nc3ccccc3F)cc2)c(C)c1Cl | inconclusive: 18.5 µM [inhibitor, single point] |
| CC(=O)N1C(=O)C2(Nc3ccccc3N2)c2ccccc21 | inconclusive: 10.4 µM [inhibitor, single point] |
| CO[C@H]1[C@H](O[C@H]2O[C@@H](C)[C@@H](O[C@@H]3C[C@](C)(O)[C@H](OC(=O)CC(C)C)[C@H](C)O3)[C@@H](N(C)C)[C@@H]2O)[C@@H](CC=O)C[C@@H](C)[C@@H](O)/C=C\C=C/C[C@@H](C)OC(=O)C[C@H]1OC(C)=O | active: 0.405 µM |
| Cc1cccnc1NC(=O)COc1ccc2oc3c(c2c1)CCCC3 | inconclusive: 18.5 µM [inhibitor, single point] |
| O=C(O)CN1C(=O)/C(=C\c2cccc(OCc3ccccc3F)c2)SC1=S | inconclusive: 4.15 µM [inhibitor, full curve] |
| Clc1ccc(CNCCCSc2ncccn2)cc1Cl | inconclusive: 18.5 µM [inhibitor, single point] |
| CC[C@@]12C(=O)N(c3ccc(C)cc3)C(=O)N1[C@H](c1cccc(C)c1)[C@@H]1C(=O)N(Cc3ccccc3)C(=O)[C@@H]12 | inconclusive: 18.5 µM [inhibitor, single point] |
| NNC(=O)c1cc(-c2ccc(O)cc2)nc2ccc(Br)cc12 | inconclusive: 10.4 µM [inhibitor, single point] |
| CCN(C(=O)CN(C)Cc1c(F)cccc1Cl)c1c(N)n(Cc2ccccc2)c(=O)[nH]c1=O | inconclusive: 11.7 µM [inhibitor, single point] |
| Cc1ccc(-n2c(SCC(=O)Nc3ccc4c5c(cccc35)CC4)nc(O)c(C)c2=O)cc1 | inactive |
| COc1ccccc1N=C1SC(C(=O)Nc2ccc(F)cc2)CC(=O)N1C (configuration not stated) | inconclusive: 10.4 µM [inhibitor, partial curve, poor fit] |

Random excerpt: two entries already listed, in no set order.

| Structure (SMILES) | Potency |
| --- | --- |
| Cc1nn(Cc2ccc(C(=O)Nc3ccccc3F)cc2)c(C)c1Cl | inconclusive: 18.5 µM [inhibitor, single point] |
| Clc1ccc(CNCCCSc2ncccn2)cc1Cl | inconclusive: 18.5 µM [inhibitor, single point] |
